{"source": "paper PMC4299515", "biological_target": "T1, MBD1 in U2OS cells (F2H) (UniProt Q9Z2E2)", "T1 sequence": "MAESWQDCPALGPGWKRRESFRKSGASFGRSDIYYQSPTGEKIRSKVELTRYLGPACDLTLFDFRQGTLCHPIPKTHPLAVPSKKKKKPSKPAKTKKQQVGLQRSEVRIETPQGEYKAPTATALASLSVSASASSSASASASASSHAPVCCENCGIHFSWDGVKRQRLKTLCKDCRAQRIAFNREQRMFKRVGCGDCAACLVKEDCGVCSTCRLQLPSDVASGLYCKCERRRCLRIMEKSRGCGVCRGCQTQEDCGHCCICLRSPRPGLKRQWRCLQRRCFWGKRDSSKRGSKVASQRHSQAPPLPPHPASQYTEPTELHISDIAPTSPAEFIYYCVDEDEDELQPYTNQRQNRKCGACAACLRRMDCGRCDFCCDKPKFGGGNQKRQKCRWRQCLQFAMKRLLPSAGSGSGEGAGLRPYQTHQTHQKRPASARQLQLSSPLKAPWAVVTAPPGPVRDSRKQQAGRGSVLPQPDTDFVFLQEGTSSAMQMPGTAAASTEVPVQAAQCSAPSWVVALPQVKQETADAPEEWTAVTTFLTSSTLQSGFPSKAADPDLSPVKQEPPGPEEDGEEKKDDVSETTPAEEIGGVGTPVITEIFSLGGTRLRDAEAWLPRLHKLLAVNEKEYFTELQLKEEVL", "assay": "two-hybrid; fluorescent two-hybrid (F2H) in living human U2OS cells: GFP-tagged protein tethered to lac-operator arrays via GBP-LacI, recruitment of the RFP-tagged protein seen by colocalization", "note": "Results are given in words; binding and its absence hold for the method and conditions named. Binding can be weak; no strength is given.", "data": [{"substance": "HP1 (isoform not named) in the F2H test with MBD1", "values": [{"measurement": "binding", "result": "binds"}]}]}
